Here are results for one molecule from article PMC7848174.

For the assay, the target named is T1, high-molecular mass rhoptry protein 3 (PfRhopH3) (P. falciparum (endogenous in NF54 schizonts)) (UniProt Q8I395).
T1 sequence: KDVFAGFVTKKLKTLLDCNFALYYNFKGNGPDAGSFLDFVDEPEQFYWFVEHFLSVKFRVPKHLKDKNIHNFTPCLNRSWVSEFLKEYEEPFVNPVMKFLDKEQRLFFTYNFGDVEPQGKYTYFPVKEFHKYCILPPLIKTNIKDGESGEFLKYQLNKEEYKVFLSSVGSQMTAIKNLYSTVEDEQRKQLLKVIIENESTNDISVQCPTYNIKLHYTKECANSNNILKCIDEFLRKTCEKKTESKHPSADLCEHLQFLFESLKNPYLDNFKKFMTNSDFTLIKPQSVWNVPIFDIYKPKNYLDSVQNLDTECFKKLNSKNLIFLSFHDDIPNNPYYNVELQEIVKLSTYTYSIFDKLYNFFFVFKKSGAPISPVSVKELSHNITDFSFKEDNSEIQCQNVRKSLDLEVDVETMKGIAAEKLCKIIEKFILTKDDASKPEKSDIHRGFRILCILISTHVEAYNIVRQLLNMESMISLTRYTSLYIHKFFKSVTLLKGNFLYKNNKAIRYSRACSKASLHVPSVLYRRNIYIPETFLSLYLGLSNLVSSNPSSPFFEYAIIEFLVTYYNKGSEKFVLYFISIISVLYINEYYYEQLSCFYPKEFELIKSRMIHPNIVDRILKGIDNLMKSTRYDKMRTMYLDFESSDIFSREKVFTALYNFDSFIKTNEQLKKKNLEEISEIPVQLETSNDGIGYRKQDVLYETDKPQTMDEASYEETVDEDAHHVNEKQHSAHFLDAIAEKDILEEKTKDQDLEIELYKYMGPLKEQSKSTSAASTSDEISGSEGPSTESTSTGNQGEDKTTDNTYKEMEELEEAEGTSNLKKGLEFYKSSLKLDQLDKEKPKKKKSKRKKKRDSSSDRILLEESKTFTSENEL
The experiment in a line: co-IP; eluates of the monoclonal antibody-conjugated affinity columns (schizont lysate) resolved by SDS-PAGE and probed by western blot with the other monoclonal antibody of the pair. In general terms: A western blot detects proteins with antibodies after separation by electrophoresis.

No constants are given. Whether binding was seen depends on the method and setting. Binding seen in cells or lysates may run through a third protein. Some results given as binding are weak or reduced against the parent protein; the word gives no strength.

B1: high-molecular mass rhoptry protein 2 (PfRhopH2) (protein, UniProt C0H571 20-1378)
chain: LELNEKVSIKYGAEQGVGSADSNTKLCSDILKYLYMDEYLSEGDKATFEKKCHNVIGNIRNTFSNKNTIKEGNEFLMSILHMKSLYGNNNNNNAGSESDVTLKSLYLSLKGSQNTEGESEVPSDDEINKTIMNFVKFNKYLLDNSNDIKKVHDFLVLTSQSNENLLPNKEKLFEQIVDQIKYFDEYFFASGGKIKVKKGYLKYNFLDIYKQPVCSAYLHLCSRYYESVSIYIRLKKVFNGIPAFLDKNCRKVKGEEFKKLMDMELKHNHIVERFDKYIISDDLYYVNMKVFDLKNVDKIQVSKIDDINNLNIYEHKETMHLSAKNLSRYIDIKKELNDEKAYKQLMSAIRKYVTTLTKADSDITYFVKQLDDEEIERFLIDLNFFLYNGFLRITEDKHLINADDVSPSYINLYRSNNIVALYILKTQYEENKLSEYRAHKFYRRKRVSNITNDMIKKDFTQTNALTNLPNLDNKKTTEYYLKEYENFVENFQPDLHDIMKLQLFFTMAFKDCNVNQNFTETSKKLWFDLLYAYDKFGWFYIHPNEVINSINKTDFVRHVLVSRNFLLKNNDQLTFLETQVAKIVEIINLSLEVDKSPDSLDFSIPMNFFNHKNGYHVMNDDKLKLLTSYEYIDSIANNYFFLSEYKNDVFRTGNNFKLYFNLPNIYSLAYQLFNELAININVITNVPLKKYLKYNASYAYFTLMNMIGKNHDIYSKGSRFVYASYILGLVFFIESHIDIARLKPKDFFFMKQSLPIIDHVYHKDLKTLKKNCTLLTDFMKINKNSQNYSLTHTEEMIKILGLLTVTLWAKEGKKSVYYDDDVSLYRKLMVSCVFNGGETIQEKLANNIEKSCDISQYGIKSKNLKDMIDINLSIHKWNPAEIEKLAYSFVLSCKMQKLMYKPMNVEKLPLEDYYKLSLAPDMVKTYHCYKLGKQAAELLESIILKKKFVRFRVTDAIDVYDFFYIKKVLSSRIKKEYNEFLQDKRAFEKKELETILNNSPFSEEQTMKLINSYECHWFTSYENFRILWMHASSNLGTGTYLKNFFSELWQNIRFLFKSKLKIRDMEYFSGDISQMNLLDYYSPMVHSESHCQEKMQVLFITLRDSKEENRSEIAQKVKSAYYQCKLDYYKNHHSDFIHRIHPNDFLNNKVYVLKQPYYLMSNVPLNNPKKVSRLFVTEGTLEYLLLDKINIPECFGPCTKLHFNKVVIKESKQRIYDMTINNALVPEIQPYNRRKYMTIYINEAYIKNIVSDALTSEEIKRHDIQKGNIKICMGKSTYLTEPILTEEHFNLTHKPVYDFSSVKHNLKVFHMKNEHLVSEDPNDDCFINYPLATINLDISDPYKEISEDLIKNLYILKSS
For B1, the binding entry is “binds”.
